This passage reports binding signal results from PMC7862700.

Amino acid sequences for entries named in this document (tags omitted). A change or cut given only in a name is not applied to a line headed by its entry.
UniProt O43186: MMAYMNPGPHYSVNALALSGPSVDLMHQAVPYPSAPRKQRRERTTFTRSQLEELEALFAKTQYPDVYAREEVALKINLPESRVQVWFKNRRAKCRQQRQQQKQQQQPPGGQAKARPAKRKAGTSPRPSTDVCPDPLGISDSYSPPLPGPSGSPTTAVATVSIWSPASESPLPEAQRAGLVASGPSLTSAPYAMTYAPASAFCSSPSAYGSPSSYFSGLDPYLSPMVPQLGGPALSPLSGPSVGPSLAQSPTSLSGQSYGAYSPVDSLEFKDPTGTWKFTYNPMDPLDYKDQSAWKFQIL

The list shows a part of the results, in another mix than the full data. At the low end of the ranking the order means little.

Test in all cases: DAPPL (digital affinity profiling via proximity ligation, sequencing)
Holding throughout (conditions): 10 mM Tris-HCl pH 7.5, 50 mM NaCl, 1 mM DTT, 4% glycerol, room temperature, 30 min; GST-TFs on glutathione beads, 16-mer random dsDNA library, 0.1% …; high values mean tight binding; double strand, one strand shown; scale: fold enrichment (6-mer frequency, TF over GST control)

One experiment addresses T1, FEV (UniProt Q99581).
T1 sequence: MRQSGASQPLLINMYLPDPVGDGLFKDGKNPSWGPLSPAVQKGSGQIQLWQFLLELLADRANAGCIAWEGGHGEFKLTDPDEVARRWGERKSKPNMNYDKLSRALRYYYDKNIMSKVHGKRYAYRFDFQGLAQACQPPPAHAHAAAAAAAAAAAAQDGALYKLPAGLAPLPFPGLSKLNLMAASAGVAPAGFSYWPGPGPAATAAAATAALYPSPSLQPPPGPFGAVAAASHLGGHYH

The next experiment deals with CRX (UniProt O43186).
The target of another experiment is T2, ELF5 (UniProt Q9UKW6-2).
T2 sequence: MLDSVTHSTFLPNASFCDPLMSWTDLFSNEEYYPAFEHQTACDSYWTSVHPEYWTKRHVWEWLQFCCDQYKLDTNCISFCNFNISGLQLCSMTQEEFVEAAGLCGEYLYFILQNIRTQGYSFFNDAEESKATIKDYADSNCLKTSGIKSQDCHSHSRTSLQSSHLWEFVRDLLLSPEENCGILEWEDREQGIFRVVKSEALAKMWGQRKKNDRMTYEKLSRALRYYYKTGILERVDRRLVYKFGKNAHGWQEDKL

For the sequence GGTCGT, the binding signal is 0.575 with FEV, 0.418 with CRX and 0.633 in the experiment with ELF5.

On to AGACAT, for which the binding signal with FEV came out at 0.806; in the experiment with CRX, 0.707; with ELF5, 0.877.

Regarding CAGTGC, the binding signal with FEV is 0.789; with CRX, 0.558; with ELF5, 0.697.

For ATCGTA, the binding signal came out at 0.852 with FEV, 0.974 with CRX and 0.819 in the experiment with ELF5.

GTCAGA: the binding signal with FEV worked out at 0.586; with CRX it was 0.545; in the experiment with ELF5, 0.618.

For the sequence TCAGTC, the binding signal with FEV came out at 0.607; in the experiment with CRX it was 0.583; with ELF5 it was 0.583.
